In one assay the target is LILRB1 (UniProt Q8NHL6). Description: SPR. On the technique in general: SPR reads the build-up and loss of mass on a sensor chip optically.
In a further assay the target is LILRB2 (UniProt Q8N423). The assay is described as follows: SPR.

Amino acid sequences for entries named in this document (tags omitted). Residues count along the entry.
UniProt Q8NHL6, residues 24-458: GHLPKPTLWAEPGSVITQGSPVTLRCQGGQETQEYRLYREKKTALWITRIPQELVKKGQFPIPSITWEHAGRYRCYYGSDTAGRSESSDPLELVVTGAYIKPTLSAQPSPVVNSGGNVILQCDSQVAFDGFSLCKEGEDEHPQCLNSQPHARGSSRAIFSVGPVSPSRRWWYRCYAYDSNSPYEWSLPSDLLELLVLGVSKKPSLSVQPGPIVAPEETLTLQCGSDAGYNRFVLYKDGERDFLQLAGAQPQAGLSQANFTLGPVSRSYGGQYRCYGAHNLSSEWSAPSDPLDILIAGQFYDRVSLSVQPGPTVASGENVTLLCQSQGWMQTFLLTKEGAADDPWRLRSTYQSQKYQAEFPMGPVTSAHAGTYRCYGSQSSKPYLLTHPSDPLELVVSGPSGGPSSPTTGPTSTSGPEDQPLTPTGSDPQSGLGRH
UniProt Q8N423, residues 22-460: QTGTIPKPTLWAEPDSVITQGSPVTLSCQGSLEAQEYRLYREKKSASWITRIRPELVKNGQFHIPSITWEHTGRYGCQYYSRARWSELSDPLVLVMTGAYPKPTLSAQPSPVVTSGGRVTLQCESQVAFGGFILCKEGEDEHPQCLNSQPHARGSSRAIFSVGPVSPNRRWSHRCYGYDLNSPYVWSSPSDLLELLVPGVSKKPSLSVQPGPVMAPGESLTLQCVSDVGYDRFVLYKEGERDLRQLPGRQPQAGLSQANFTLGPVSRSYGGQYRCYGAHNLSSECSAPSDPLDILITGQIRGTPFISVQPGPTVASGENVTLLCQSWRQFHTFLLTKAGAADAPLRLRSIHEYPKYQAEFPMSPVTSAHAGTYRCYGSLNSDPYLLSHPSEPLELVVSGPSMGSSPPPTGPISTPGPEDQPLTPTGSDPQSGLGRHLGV

Among the data in US20250171559A1 are binding values, retold here.

These are yes or no findings as the source states them, for the method shown. Some binding calls cover weakened binding; strength is not graded here.

B1: full-length tryptophanyl-tRNA synthetase (WRS) (enzyme)
chain: MPNSEPASLLELFNSIATQGELVRSLKAGNASKDEIDSAVKMLVSLKMSYKAAAGEDYKADCPPGNPAPTSNHGPDATEAEEDFVDPWTVQTSSAKGIDYDKLIVRFGSSKIDKELINRIERATGQRPHHFLRRGIFFSHRDMNQVLDAYENKKPFYLYTGRGPSSEAMHVGHLIPFIFTKWLQDVFNVPLVIQMTDDEKYLWKDLTLDQAYSYAVENAKDIIACGFDINKTFIFSDLDYMGMSSGFYKNVVKIQKHVTFNQVKGIFGFTDSDCIGKISFPAIQAAPSFSNSFPQIFRDRTDIQCLIPCVIDQDPYFRMTRDVAPRIGYPKPALLHSTFFPALQGAQTKMSASDPNSSIFLTDTAKQIKTKVNKHAFSGGRDTIEEHRQFGGNCDVDVSFMYLTFFLEDDDKLEQIRKDYTSGAMLTGELKKALIEVLLPLIAEHQARRKEVTDEIVKEFMTPRKLSFDFQ
As to B1, the binding result with LILRB1 and with LILRB2 was “binds” throughout.

B2: mini-WRS (enzyme)
chain: MSYKAAAGEDYKADCPPGNPAPTSNHGPDATEAEEDFVDPWTVQTSSAKGIDYDKLIVRFGSSKIDKELINRIERATGQRPHHFLRRGIFFSHRDMNQVLDAYENKKPFYLYTGRGPSSEAMHVGHLIPFIFTKWLQDVFNVPLVIQMTDDEKYLWKDLTLDQAYSYAVENAKDIIACGFDINKTFIFSDLDYMGMSSGFYKNVVKIQKHVTFNQVKGIFGFTDSDCIGKISFPAIQAAPSFSNSFPQIFRDRTDIQCLIPCVIDQDPYFRMTRDVAPRIGYPKPALLHSTFFPALQGAQTKMSASDPNSSIFLTDTAKQIKTKVNKHAFSGGRDTIEEHRQFGGNCDVDVSFMYLTFFLEDDDKLEQIRKDYTSGAMLTGELKKALIEVLLPLIAEHQARRKEVTDEIVKEFMTPRKLSFDFQ
Consider B2, for which the binding result with LILRB1 and with LILRB2 was “binds” in each case.
